Positions count from the first letter of the chain named. No constants are given. Whether binding was seen depends on the method and setting. In cells and extracts the contact can be indirect. These calls come from enrichment with a bait or labelling near it, and not all partners need be listed. Tags and fused reporters may be left off the sequences shown.

The chains behind the UniProt entries cited, without tags or fusion partners.
UniProt Q05397: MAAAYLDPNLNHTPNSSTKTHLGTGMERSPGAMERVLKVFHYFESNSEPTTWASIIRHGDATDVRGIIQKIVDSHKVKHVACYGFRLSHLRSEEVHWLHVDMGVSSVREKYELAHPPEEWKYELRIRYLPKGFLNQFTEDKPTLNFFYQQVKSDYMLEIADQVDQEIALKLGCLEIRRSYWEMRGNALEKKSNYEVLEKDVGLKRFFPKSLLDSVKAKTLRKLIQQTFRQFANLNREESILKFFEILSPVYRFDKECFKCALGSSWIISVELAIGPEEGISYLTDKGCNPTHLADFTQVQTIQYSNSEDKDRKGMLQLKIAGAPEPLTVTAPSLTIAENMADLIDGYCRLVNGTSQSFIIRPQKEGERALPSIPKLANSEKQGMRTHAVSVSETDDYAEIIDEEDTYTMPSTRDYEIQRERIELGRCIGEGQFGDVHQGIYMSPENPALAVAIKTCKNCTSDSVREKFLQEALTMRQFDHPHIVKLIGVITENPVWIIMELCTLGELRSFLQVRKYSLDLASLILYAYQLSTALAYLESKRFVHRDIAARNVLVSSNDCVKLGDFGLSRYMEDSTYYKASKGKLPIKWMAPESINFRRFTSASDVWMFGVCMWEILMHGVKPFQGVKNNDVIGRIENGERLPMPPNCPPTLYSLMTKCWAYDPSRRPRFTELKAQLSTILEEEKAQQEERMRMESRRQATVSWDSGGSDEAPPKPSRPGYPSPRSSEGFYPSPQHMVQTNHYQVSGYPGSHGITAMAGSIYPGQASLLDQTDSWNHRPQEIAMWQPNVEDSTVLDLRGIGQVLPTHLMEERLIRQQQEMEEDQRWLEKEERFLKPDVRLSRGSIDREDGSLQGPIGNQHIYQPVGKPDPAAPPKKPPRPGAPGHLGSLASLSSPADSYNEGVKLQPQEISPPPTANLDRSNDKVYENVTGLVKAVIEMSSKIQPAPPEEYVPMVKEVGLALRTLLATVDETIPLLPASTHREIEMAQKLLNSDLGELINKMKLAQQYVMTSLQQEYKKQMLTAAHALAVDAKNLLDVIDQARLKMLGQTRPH

The values below come from PMC3901934, “CAS directly interacts with vinculin to control mechanosensing and focal adhesion dynamics” (Cellular and Molecular Life Sciences: CMLS, 2013).

The target in experiment [1] is T1, GST fused CAS SH3 domain, Y12F (UniProt Q61140).
T1 sequence: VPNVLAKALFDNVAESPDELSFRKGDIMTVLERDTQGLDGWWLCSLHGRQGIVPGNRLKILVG
Nature of the experiment: affinity purification with mass spectrometry; purified GST-CAS SH3 variants incubated with HeLa cell lysate (affinity chromatography); bound proteins separated by SDS-PAGE; peptide mass fingerprinting, MALDI TOF/TOF; only the target purified.

Experiment [2] deals with T2, GST fused CAS SH3 domain, WT (UniProt Q61140).
T2 sequence: T1 sequence with F10Y
Described as above.

In the case of “FAK (HeLa cell lysate) (from UniProt Q05397 1-1052)”, the binding entry in experiment [1] and in experiment [2] was “binds” each time.
